US20060019410A1, “Apparatus, kits and methods for evaluating binding interactions, for detecting and quantifying binding molecules, and for sample preparation” (Qualyst, Inc., priority 2004, published 2006)

By UniProt entry, the sequences of proteins in these tests, tags left out. Residues count along the entry.
UniProt P02768, 25-609: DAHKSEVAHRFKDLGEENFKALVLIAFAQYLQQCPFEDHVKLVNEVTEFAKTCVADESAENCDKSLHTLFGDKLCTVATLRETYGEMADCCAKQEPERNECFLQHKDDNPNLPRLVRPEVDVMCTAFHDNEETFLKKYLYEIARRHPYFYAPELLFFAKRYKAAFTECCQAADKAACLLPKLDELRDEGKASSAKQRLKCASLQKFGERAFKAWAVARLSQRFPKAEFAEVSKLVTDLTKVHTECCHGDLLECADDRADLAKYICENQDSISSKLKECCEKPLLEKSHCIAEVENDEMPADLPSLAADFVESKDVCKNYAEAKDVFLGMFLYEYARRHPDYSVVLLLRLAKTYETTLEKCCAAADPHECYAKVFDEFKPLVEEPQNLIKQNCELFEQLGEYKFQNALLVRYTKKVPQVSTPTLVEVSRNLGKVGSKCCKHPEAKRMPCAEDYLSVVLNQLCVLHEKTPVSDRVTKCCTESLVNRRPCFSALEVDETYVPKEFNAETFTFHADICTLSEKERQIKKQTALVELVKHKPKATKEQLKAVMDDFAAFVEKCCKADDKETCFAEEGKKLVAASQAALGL

Columns and labels:
[1] = target: T1, HSA (Homo sapiens, UniProt P02768); conditions: 1 μM drug + 1 μM DS in HSA; 10 mg DCC bed
[2] = target: T1, HSA; assay: percent recovery from HSA with the 96-well ACCUPRO DCC device; type: in vitro ADME
Experimental: Chemical Analysis. […] For a given sample, the peak areas of the particular drug and its internal standard are measured and a ratio of these two values is determined. The peak area ratio (PAR) of the (+) DCC-extracted sample is divided by its corresponding (−) DCC extracted sample PAR to determine a percent recovery value. This recovery value is not a % HSA bound value.
Preparation of DCC plate. Prepare a DCC filter plate with 5 mg and 10 mg bed sizes as described in Example 1 and 3.
Set-Up of Incubation Study.

COc1ccc2cc([C@H](C)C(=O)O)ccc2c1 [Naproxen]
DS (dansylsarcosine) PAR in final sample preparation [1]: lower level
percent recovery (relative ranking) ([2]; HSA, naproxen versus ketorolac): higher percent recovery
percent recovery from HSA ([2]; drug at 1 μM, 5 mg and 10 mg DCC bed, compared with the usual concentrations (217 μM and 0.5 μM)): comparable to values obtained above
